Binding signal data for 42 sequences are collected here from PMC7819943, “Rice protein-binding microarrays: a tool to detect cis-acting elements near promoter regions in rice”.

This is one part of the list.

The target of this test is T1, OsSMF1 (Oryza sativa, UniProt Q6ZLB0 1-436).
T1 sequence: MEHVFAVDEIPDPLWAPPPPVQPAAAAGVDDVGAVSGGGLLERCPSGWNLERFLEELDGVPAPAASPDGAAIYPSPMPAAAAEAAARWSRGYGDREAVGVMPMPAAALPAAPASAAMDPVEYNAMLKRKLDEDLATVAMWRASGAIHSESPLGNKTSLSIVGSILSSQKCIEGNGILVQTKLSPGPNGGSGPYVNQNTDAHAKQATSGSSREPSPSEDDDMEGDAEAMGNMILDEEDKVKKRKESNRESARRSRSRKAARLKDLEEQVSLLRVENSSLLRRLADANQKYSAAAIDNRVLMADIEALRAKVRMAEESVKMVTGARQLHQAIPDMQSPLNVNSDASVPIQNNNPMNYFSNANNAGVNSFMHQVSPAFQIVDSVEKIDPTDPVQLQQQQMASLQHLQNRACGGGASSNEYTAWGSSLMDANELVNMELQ
Kind of test: protein-binding microarray (RPBM); PBS, 2% BSA, 51.3 ng/ul salmon testes DNA, 50 uM zinc acetate, 200 nM TF, 25 C, 1 h; high values mean tight binding. The conditions noted are these: protein: recombinant; tags: N-terminal polyhistidine and DsRed monomer fusion (pET32a); chain copies: 2; label: CyDye5-dUTP incorporated in the synthesized complementary strand; 3' TTTTT single-stranded linker to array surface; dsDNA, one strand shown. The method, boiled down:
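The binding signal is fluorescence intensity per array feature (arbitrary units). Readings came from an Axon 4000B scanner after a washed, 2% BSA-blocked, double-stranded custom Agilent array had been incubated for 1 h at 25 °C with 200 nM protein and 50 µM zinc acetate. The protein was a Ni–NTA-purified transcription factor fused N-terminally to polyhistidine and DsRed, expressed in E. coli BL21-CodonPlus.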
In the case of “TAAAATTACTAAAACAATGTGATCATCATATGCAGGCTTCCGGAGTCACCTAGTGCAG”, the binding signal is 3150 fluorescence intensity (a.u.). For “GCTCCTCCCGTGCCGCCGCCGTCTCGCGCCAGTGCGTCTCCGGAGTCACCTAGTGCAG” the value was 3330 fluorescence intensity (a.u.); for “GATTGGCTGGCCCGGTGTCATGGAGTGGAGCCACGTGACACGGAGTCACCTAGTGCAG”, 4300 fluorescence intensity (a.u.). For “CTCGCCTCCCGCGCGCGCCGCCTCTTCCGTCGACGTCGCGCGGAGTCACCTAGTGCAG” the value was 3460 fluorescence intensity (a.u.); for “GATCCGGCGCGATAAAATGCGAGCCTCTCTCTCTCCCGGGCGGAGTCACCTAGTGCAG”, 3160 fluorescence intensity (a.u.). For “TCAACACTGAATACCATGTCTATCATCTAACACAATCGATCGGAGTCACCTAGTGCAG” the value was 6720 fluorescence intensity (a.u.); for “CAATCATTCAAGTCTAAGACAGTGAATTGAGTTAGAGTAACGGAGTCACCTAGTGCAG”, 30800 fluorescence intensity (a.u.); for “TTTTGTTCACTGATTTATGATTTATTTAAGAAGAGAGAGACGGAGTCACCTAGTGCAG”, 18500 fluorescence intensity (a.u.). For the sequence “AGGAGCGAATTTCACAAGGGAATTGCGTGGCGTGTCGACTCGGAGTCACCTAGTGCAG”, the binding signal is 4380 fluorescence intensity (a.u.). For “AAATGCTGACTGGACTGCCACGTGTACGCCACGTAGACCACGGAGTCACCTAGTGCAG” the value was 45400 fluorescence intensity (a.u.); for “GTAAATGGAGGCCGGCCCGGCCCATTTCAAACTAAATGTGCGGAGTCACCTAGTGCAG”, 3250 fluorescence intensity (a.u.); for “CACCACCACGTGTTCGATCGCGTCCTCCAAGCCCCAGCACCGGAGTCACCTAGTGCAG”, 3680 fluorescence intensity (a.u.). For “GTTGTTGCAGCTTGGAAGAGTCTATTGCCGGATTCGTCACCGGAGTCACCTAGTGCAG”, the binding signal was 3230 fluorescence intensity (a.u.). For “CACGCTCTGGCAACAATCTCTCCACGCAGACACGTCACGCCGGAGTCACCTAGTGCAG” the value was 22700 fluorescence intensity (a.u.).

“CTCCCTCCACACATCAGTTGTGCCCTCCTCATTTGCTGGTCGGAGTCACCTAGTGCAG”: the binding signal was 3210 fluorescence intensity (a.u.).

Take “TCTCTCCTCCTCCCATCTCCGCTTCCCTTCTTCTTCTTCTCGGAGTCACCTAGTGCAG”: the binding signal is 19000 fluorescence intensity (a.u.).

In the case of “ACCAACGAATTATCTGTTGCCTAAGACTGTGACTCACTAGCGGAGTCACCTAGTGCAG”, the binding signal was 4600 fluorescence intensity (a.u.). For “AAAGCCCTTACGGGGAAAAGAAACCATGATGCTGACTGGTCGGAGTCACCTAGTGCAG” the value was 5720 fluorescence intensity (a.u.); for “AATTTCTACGCCCATGTCAGCGGTGACGACGCGCGCGCGTCGGAGTCACCTAGTGCAG”, 4430 fluorescence intensity (a.u.). For “AAATTCTGTTCTTGCCTCTGACGAAGCTGTCCATATAGTACGGAGTCACCTAGTGCAG” the value was 4240 fluorescence intensity (a.u.). For “AAACCGATCAAAATCCCGGACGCCACCGCCGGCTCTCGCGCGGAGTCACCTAGTGCAG” the value was 10500 fluorescence intensity (a.u.); for “TGCCATGTTTCTTGCATAGTTGCTGATTCTATCACTTCCTCGGAGTCACCTAGTGCAG”, 3500 fluorescence intensity (a.u.).

As to “AGAGGATGACGATGGCGACGGCGGCAGCGGCGGAGGAGGCCGGAGTCACCTAGTGCAG”, the binding signal is 3280 fluorescence intensity (a.u.). For “GAAATTGGCAGTTTGTTTGCCTGTGTTGGCACCTACACAACGGAGTCACCTAGTGCAG” the value was 4340 fluorescence intensity (a.u.). For “GGCCGTCCAGCGTAATTATGCACTCCTGTCCACTCGTCCACGGAGTCACCTAGTGCAG” the value was 3330 fluorescence intensity (a.u.); for “ACTAGAATTGAGTTGGATTGTGAGCTGTACGTGGACTGATCGGAGTCACCTAGTGCAG”, 6410 fluorescence intensity (a.u.); for “TGCTAGGAGCTGAAACAAGCCGTCGTCTCCTTCCTTCTGTCGGAGTCACCTAGTGCAG”, 5180 fluorescence intensity (a.u.). For “CCGTTGTTGGTCGGAGCATCACCTGGGCGGTGTTTCCCTGCGGAGTCACCTAGTGCAG” the value was 15800 fluorescence intensity (a.u.).

As for “AAGGTTTGAATCCTCCTACCTACGCATGCTTCGGAATCCTCGGAGTCACCTAGTGCAG”, the binding signal is 3300 fluorescence intensity (a.u.). For “TCGGCGTTCGCGTAGAATCACACGTGCCGCGCGTTCCCTGCGGAGTCACCTAGTGCAG” the value was 3880 fluorescence intensity (a.u.); for “GGCCCCACCTGTCAGTGAGACGACCATCGCGGTAACCGCACGGAGTCACCTAGTGCAG”, 19100 fluorescence intensity (a.u.).

Take “CATAAACGACGTGGGAGTATTATTATTCAACGCTGAGTCACGGAGTCACCTAGTGCAG”: the binding signal was 5060 fluorescence intensity (a.u.). For “GGATGGGGCGCAGCGCAATGCAAAACTGCAGATGCATGCACGGAGTCACCTAGTGCAG” the value was 3210 fluorescence intensity (a.u.); for “GCACGGCACGGCCCGGCCTAAATGAGCCGTGCCTAATCGTCGGAGTCACCTAGTGCAG”, 16800 fluorescence intensity (a.u.). For “TGAGAAATGTAAATATGTTTACGAGAAATGACTAGTAGTTCGGAGTCACCTAGTGCAG” the value was 22100 fluorescence intensity (a.u.); for “CCACCACCACCACCACCACCACCTCCCCTCTCCCATTCGACGGAGTCACCTAGTGCAG”, 3500 fluorescence intensity (a.u.); for “CAACATTAGCAATTAAAATTGCGGGTTATTTGTAAAAGTCCGGAGTCACCTAGTGCAG”, 32000 fluorescence intensity (a.u.). As for “CAACATTTCTGAGTTGGCGCATCACTAATTTTGGGAATGACGGAGTCACCTAGTGCAG”, the binding signal is 3960 fluorescence intensity (a.u.). For “GACGGCGCGGTCGACCCGCCGTCTGCCACGTCAGCTTGCCCGGAGTCACCTAGTGCAG” the value was 27400 fluorescence intensity (a.u.); for “GCAGGTAGAGAGAGAGATGGCGGACGCTGATGACATCCAGCGGAGTCACCTAGTGCAG”, 3680 fluorescence intensity (a.u.). In the case of “TAACTAATTACACAGATTGCGTGTAAATTACGAGACAAATCGGAGTCACCTAGTGCAG”, the binding signal is 3240 fluorescence intensity (a.u.). For “AGCCTCCAGGCATTGGCGCGCACAGAGGCAGACACGTTGGCGGAGTCACCTAGTGCAG” the value was 5450 fluorescence intensity (a.u.).
